This is one part of the list.
B1: il2ra_site1_2b5i_normal_mot_HHH_b1_02217_af2_000000060_0001_42_56_H_._HHH_b1_03152_0001_0000100008_0000001_0_af2pred_dldesign_0_af2pred (protein)
chain: SSSSDPEARLEELAAELFKLSISGKKEEFEKVYEEALRLAKELKDEKTIEQLEFLKERLESSSSS
B2: il2ra_site2_2erj_normal_mot_HHH_b2_08311_000000151_0001_42_56_H_._HHH_b1_01841_0001_0000200008_0000001_0 (protein)
chain: SSSSDEEFRELAIRAHELALEYERENDERLREELRELLEEVEELGDEVLFRYVELLLRELSSSSS
B3: il2ra_site1_1z92_normal_mot_7f39e2d7389de0c2f60e905c27398b6a_0001_1_000000104_0001_37_51_H_._b993f726e2a1b23aaa9ca63207d855c5_0001_0001_0000200010_0000001_0_af2 … (protein)
chain: GEEEVEIAEKMAGGDPEKFVRLVLRLLKAAGELSPEELKELEEKLEELLKRDPEKAKELAERALE
B4: il2ra_site1_3nfp_sap_10_mot_HHH_b1_03753_af2_000000088_0001_41_54_H_._HHH_b2_08022_af2_0001_0000500028_0000001_0_0001 (protein)
chain: SSSSSEVERLSRLFHEAYRAAKNGDHEEARELLEEALEIAEEAGNRAAKRSLEAAEKQVNSSSSS
B5: il2ra_site2_3nfp_sap_30_mot_ems_3hM_287_af2_000000177_0001_46_64_H_._389fc1b6a7361b8bfcefbbec9e626cb8_0001_af2_0001_0000500034_0000001_0_0001 (protein)
chain: DLLLELAAEAWERGDEDLFALVSAALHAKQQGVPPEEIEEELKRIVELAGIPPEVLELVEEAVRT
B6: il2ra_site2_2erj_normal_mot_HHH_b1_02566_000000063_0001_42_58_H_._HHH_b1_02927_af2_0001_0000700007_0000001_0 (protein)
chain: SSSSNEAWEEVAELLLQAYEAARNNDEELLKELLEQAREIAEEANSEALKRYVEFARRLQESSSS
B7: il2ra_site1_3nfp_sap_21_mot_547aa2ef8f6f7cecb07f26a8b8f5883c_0001_1_000000275_0001_1_15_H_._HHH_b1_04668_0001_0000700018_0000001_0_0001 (protein)
chain: SIAEAFARLVANAPNPRLDARHVIKALREAAPDPERVKEIVREIIELLEELGNPEAAEILEELLK
B8: il2ra_site1_3nfp_normal_mot_HHH_b1_00233_000000159_0001_1_17_H_._HHH_b1_02182_0001_0000900016_0000001_0_af2pred_0001_af2pred_1 (protein)
chain: SSSSSEVARIVIELAEEFNLDHEASEKLIRLAAKLLLRGVSEEEIEELLEELAKRLAEELSSSSS
B9: il2ra_site1_1z92_sap_30_mot_HHH_b1_06519_000000232_0001_23_40_H_._HHH_b1_01092_0001_0000500023_0000001_0_0001_af2pred_0001_af2pred_1 (protein)
chain: SSSSSSEQSARHIVKAAVEAARLSEEQEKELEELAEELVRRGYSFEEIFRILDELALKLASSSSS
B10: il2ra_site1_3nfp_normal_mot_HHH_b1_07644_af2_000000110_0001_40_57_H_._56b2e862c5d7020fcb9d25388f5aedda_0001_af2_0001_0000100004_0000001_0 (protein)
chain: DIAERLLRQAKELGDLKAVSDVAAAAAFHRNDPELEERIEKLKEEAKENPEVEEELIELAERLLK

target: il2ra, P01589; test: yeast display titration

Apparent Kd, inactive:
B1 no binding seen
B2 no binding seen
B3 no binding seen
B4 no binding seen
B5 no binding seen
B6 no binding seen
B7 no binding seen
B8 no binding seen
B9 no binding seen
B10 no binding seen

— paper PMC10163288
